# Assay results published in PubChem BioAssay AID504375 (National Center for Advancing Translational Sciences (NCATS), 2011).
# By UniProt entry, the sequences of proteins in these tests, tags left out.
# UniProt Q01196, whole entry, looked up: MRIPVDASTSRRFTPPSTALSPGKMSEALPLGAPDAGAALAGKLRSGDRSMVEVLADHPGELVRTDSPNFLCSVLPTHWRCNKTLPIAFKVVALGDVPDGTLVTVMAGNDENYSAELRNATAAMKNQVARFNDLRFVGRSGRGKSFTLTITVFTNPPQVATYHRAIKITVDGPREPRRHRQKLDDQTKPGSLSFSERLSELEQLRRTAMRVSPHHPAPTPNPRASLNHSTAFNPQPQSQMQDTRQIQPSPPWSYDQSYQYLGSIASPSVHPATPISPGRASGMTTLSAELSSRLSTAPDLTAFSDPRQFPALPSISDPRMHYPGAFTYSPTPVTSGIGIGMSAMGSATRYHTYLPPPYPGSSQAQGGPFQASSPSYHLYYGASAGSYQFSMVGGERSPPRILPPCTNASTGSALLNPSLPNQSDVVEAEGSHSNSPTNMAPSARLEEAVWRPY
# UniProt Q13951, whole entry, looked up: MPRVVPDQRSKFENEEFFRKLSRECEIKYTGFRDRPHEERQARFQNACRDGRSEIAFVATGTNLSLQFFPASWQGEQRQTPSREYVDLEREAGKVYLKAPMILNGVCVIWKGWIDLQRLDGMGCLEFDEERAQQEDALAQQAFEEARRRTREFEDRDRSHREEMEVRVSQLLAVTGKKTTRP
# In all, about 1,600 compounds went through this assay and about 25 (2%) were called active. Inconclusive results (about 7%) are left out. The call rests on the fitted dose curve; in most records, active means well fitted inhibition curve with a large enough effect; inconclusive means small, poorly fitted or top-dose-only effect, or effect the other way; inactive means no such curve, though single readings can be large or run the other way. The list shows a part of the results.
# Molecular target: Runt-related transcription factor 1 (Homo sapiens) + Core-binding factor subunit beta (Homo sapiens) (UniProt Q01196+Q13951)
# Test: qHTS Assay for Compounds Blocking the Interaction Between CBF-beta and RUNX1 for the Treatment of Acute Myeloid Leukemia: Hit Validation with Orthogonal Assay
# Conditions: CBFbeta-RUNX1 binding orthogonal assay, biochemical; series mostly up to 41 µM; activity change, negative = inhibition: at the top concentration
# Summary of the method: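 This is an orthogonal TR-FRET assay. His6-CBF-beta and biotin-RUNX1 (30 nM each) were preincubated with compound for 30 min, then Tb-anti-His antibody (0.44 ng) and streptavidin-XL665 (5 nM) were added. The signal was read after 90 min.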
# On the % scale 0 is the no-effect control and ±100 the full control effect; potency means the concentration at half of the fitted maximal effect.
SMILES,"activity change, negative = inhibition",Potency
Nc1nn(-c2ccccc2)c(N)c1N=Nc1cccc(F)c1,inactive: 46.2%,
NC(=O)NN=C1C2CCCC1C(c1ccccc1)NC2c1ccccc1 (configuration not stated),inactive: 3.94%,
Cc1cc(C(F)(F)F)cc(NNC(=O)NC(=O)c2ccccc2Cl)n1,inactive: 7.22%,
N/C(=N\OC(=O)c1cnn(-c2ccccc2)c1C(F)(F)F)c1cc(C(F)(F)F)cc(C(F)(F)F)c1,inactive: 14.9%,
Cc1nc(SCCO)c([N+](=O)[O-])[nH]1,inactive: 21.3%,
O=C(N/N=C/c1ccccc1[N+](=O)[O-])c1cnccn1,inactive: 72.5%,
O=C(c1ccccc1)c1ccc2c(c1)OCCCO2,inactive: -7.14%,
CC(=O)c1c(C)nc(Nc2nc3ccccc3s2)nc1C,inactive: 8.18%,
Cc1oc(S(=O)(=O)N2CCOCC2)cc1C(=O)Nc1ccc(Cl)cc1,inactive: -6.9%,
Cc1cc(=O)[nH]c(N/N=C/c2ccc3c(c2)OCCO3)n1,inactive: 19.5%,
COc1ccc(/C=N/NC(=O)CCn2cnc3ccccc32)cc1,inactive: -2.9%,
O=C(N/N=C/c1ccc(Br)s1)c1ccco1,inactive: 17.6%,
CN1C(CC(=O)Nc2ccc(Cl)cc2Cl)c2ccccc2CC1(C)C (configuration not stated),inactive: 2.79%,
COc1ccc2[nH]c(=O)c(CN(C(=O)c3cccnc3)c3cccc(C)c3)cc2c1,inactive: -9.76%,
Cc1[nH]c2ccccc2c1C(=O)CSC(=S)N1CCN(C)CC1,inactive: -14.2%,
CCSc1nc(C)c(C)c(=O)[nH]1,inactive: 8.66%,
COC(=O)c1[nH]c2cc(OC)ccc2c1N=CN(C)C,inactive: 28.9%,
CC(C)CCNC(=O)C(=O)NCc1ccccc1,inactive: -21.2%,
C(=C\c1nccc2c1[nH]c1ccccc12)/c1ccccc1,inactive: 10.1%,
O=C(Oc1ccc2c(c1)O/C(=C\c1ccncc1)C2=O)c1cccs1,inactive: 10.4%,
CCOC(=O)c1c2c([nH]c(=S)c1C#N)CCCC2,inactive: 17.9%,
Cn1ncc(Br)c1N1C(=O)CCC1=O,inactive: 1.93%,
CC(C)Cn1nc(NC(=O)c2cccs2)c2cc3ccccc3nc21,inactive: 20.5%,
CNC(=O)Nc1cc(NC(=O)NC)cc(C(F)(F)F)c1,inactive: -11.8%,
CN(C)c1cc(-c2cccc([N+](=O)[O-])c2)oc(=O)c1Cl,inactive: 26.4%,

SMILES,"activity change, negative = inhibition",Potency
CC(=O)c1sccc1NC(=O)c1ccccc1C(=O)O,inactive: 3.8%,
Oc1cccc(O)c1O,,active: 888 nM
Cc1nn2c(NC(C)C)c3c(nc2c1-c1ccccc1)CCC3,inactive: 16.6%,
Oc1ccc(Br)cc1/C=N/N1CCN(Cc2cccc3ccccc23)CC1,inactive: 2.24%,
Cc1ccc2nc(-c3ccc4c(c3)OCCO4)cn2c1,inactive: -6.52%,
Cc1c(NC(=O)Nc2c(Cl)cccc2Cl)c(=O)n(-c2ccccc2)n1C,inactive: 21.8%,
CCN(CC)CCCN=Cc1c(O)n(-c2ccccc2C)c(=O)c2ccccc12,inactive: 13.9%,
CCN(CC)C(=O)Oc1cc(COC)nc(-c2ccccc2)n1,inactive: -3.35%,
Cc1ccc(CSc2nnc([C@@H]3CCCN3C(=O)OC(C)(C)C)o2)cc1,inactive: 15.5%,
CCN(CC(=O)Nc1ccc(C(=O)Nc2ccc(OC)cc2)cc1)Cc1nc2ccccc2c(=O)[nH]1,inactive: 8.29%,
CCOC(=O)c1ccc(N2CCCCC2)c(NS(=O)(=O)c2cccc(C(F)(F)F)c2)c1,inactive: 10.6%,
Cc1cc([N+](=O)[O-])nn1Cc1ccc(C(=O)N/N=C/c2ccc(N(C)C)cc2)cc1,inactive: 37.7%,
O=C(CN1C(=O)NC2(CCCCC2)C1=O)Nc1cccc(S(=O)(=O)N2CCOCC2)c1,inactive: -1.5%,
CC1(C)Cc2nc(-c3ccccc3)nc(SCC(O)CO)c2CO1 (configuration not stated),inactive: -10.9%,
N/C(CC1CC1(Cl)Cl)=N\OC(=O)c1ccccc1 (configuration not stated),inactive: 1.08%,
CC(=O)c1cnn(-c2ccc(Cl)cc2)c1C,inactive: 0.0856%,
OCCNC(=S)NCc1ccccc1,inactive: -1.68%,
Cn1c2c(c(=O)n(C)c1=O)C(c1cccc(F)c1)C(C#N)=C(N)O2 (configuration not stated),inactive: 6.06%,
COc1cc(C)nc(NC(=S)N(C)C(=O)c2ccccc2)n1,inactive: 5.33%,
CSc1nc2cc(S(=O)(=O)N3CCCCC3)ccc2s1,inactive: 1.66%,
CN(CC(O)CN1CCOCC1)S(=O)(=O)O (configuration not stated),inactive: 15.8%,
C/C(=N/NC(=O)CCc1c(C)n[nH]c1C)c1cccc([N+](=O)[O-])c1,inactive: 37.8%,
CN1CCN(c2nnc(-c3ccccc3)c(-c3ccccc3)n2)CC1,inactive: 26.7%,
CCN(c1cccc2ccccc12)S(=O)(=O)c1ccc(Cl)nc1,inactive: 2.34%,
Cc1ccc(CNS(=O)(=O)c2ccc(C(F)(F)F)cc2)n1C,inactive: -9.15%,

SMILES,"activity change, negative = inhibition",Potency
O=C(/C=C/c1ccc(O)c(O)c1)c1ccccc1O,inactive: 15.8%,
CCCCC(=O)Nc1ccc(NC(=S)NC(=O)c2ccco2)cc1OC,inactive: -1.9%,
CCN(CC)S(=O)(=O)c1ccc(N=Nc2c(N)[nH]c(=O)[nH]c2=O)cc1,inactive: 12.6%,
Cc1ccc(S(=O)(=O)Oc2ccccc2/C=C2/SC(=O)NC2=O)cc1,inactive: 26.1%,
CC(C)c1ccc(-c2nc3ccccc3s2)cc1,inactive: -8.49%,
CCC(=O)Nc1cccc(C(=O)OC)c1,inactive: 1.37%,
COc1ccc(CC(=O)n2[nH]c(=O)ccc2=O)cc1OC,inactive: -2.94%,
Nc1cc2ccncc2c2ccccc12,inactive: 25.6%,
O=C1N=C(N2CCc3ccccc3C2)S/C1=C\c1ccc(O)cc1,inactive: 32.5%,
O=C(/C=C/c1ccccc1Cl)Nc1ccccc1,inactive: 10.6%,
CC(C)[C@H](NC(=O)OC(C)(C)C)C(=O)N/N=C/c1ccc2nccnc2c1,inactive: 30%,
c1ccc(-c2n[nH]c(-c3ccccn3)n2)nc1,inactive: -1.29% [at 82.4 µM],
Cc1cccc(C)c1NC(=S)N/N=C/c1ccc(C(=O)O)cc1,inactive: -10.5%,
Cc1ccc(Oc2ncccc2N)c2c1CCC2,inactive: 26%,
COc1ccc(C(=O)COc2ccc(C)cc2NC(C)=O)cc1,inactive: 1.31%,
Cc1ccc(Cn2c(N/N=C/c3ccncc3)nc3c2c(=O)n(C)c(=O)n3C)cc1,inactive: 16.5%,
COc1ccccc1C1=NOC(COc2ccc3c(C)cc(=O)oc3c2)C1 (configuration not stated),inactive: -2.08%,
CCNc1ccc([N+](=O)[O-])cc1,inactive: 6.14%,
COC(CNc1ccc([N+](=O)[O-])c(NCC(OC)OC)c1C#N)OC,inactive: 37.5%,
C#CCSc1nc(=O)c2cccnc2n1-c1ccc(C)cc1,inactive: -2.96%,
CCCc1cc(=O)c2ccc(OCC(C)=O)cc2o1,inactive: -7.77%,
O=S(=O)(Nc1ccc(Cl)cc1)c1ccc2c(c1)CCO2,inactive: -5.63%,
COc1ccc2c(c1)CCN1C2CCN2C(=O)CCC21 (configuration not stated),inactive: 8.67%,
C/C(Cc1nnn(-c2cc(C)on2)n1)=N\O,inactive: -3.29%,
CC(=O)NNC(=S)Nc1cccc(F)c1,inactive: 4.2%,

SMILES,"activity change, negative = inhibition",Potency
COc1cccc(/C=N/n2nnnc2N)c1,inactive: 8.92%,
NNC(=O)c1ccc(COc2ccc3ccccc3c2)o1,inactive: 6.03%,
c1ccc(Nc2nnc(-c3cccc4ccccc34)o2)cc1,inactive: -3.52%,
O=C(Nc1ccc(F)cc1)OCCOc1ccc(Br)cc1,inactive: -3.27%,
COc1ccc(/C(C)=N/NC(=O)Cn2nc([N+](=O)[O-])cc2C)cc1,inactive: 15.2%,
CC(C)(C)OC(=O)N[C@@H](Cc1ccccc1)c1nnc(SCC(N)=O)o1,inactive: -1.79%,
CC1(C)CCSC(/C=C/c2ccccc2)=N1,inactive: 1.41%,
Nc1c(Cl)ncnc1N/N=C/c1ccncc1,inactive: 71.1%,
COc1ccccc1C(=O)N1CCC(N2CCN(c3ccccc3OC)CC2)CC1,inactive: 8.69%,
COC(=O)c1ccc(Cn2nc([N+](=O)[O-])c(Br)c2C)cc1,inactive: 26.6%,
O=S(=O)(Nc1ccc(C(F)(F)F)cn1)c1ccccc1,inactive: 13.6%,
O=C(NCCC1CC1(Cl)Cl)Nc1ccccc1 (configuration not stated),inactive: 6.85%,
C/C(O)=C(\C#N)P(=O)(c1ccccc1)c1ccccc1,inactive: -5.22%,
C(=N\N1CCN(c2ccccn2)CC1)/c1cccc2ccccc12,inactive: 3.82%,
CCOC(=O)N1CCC(NS(=O)(=O)c2ccc(C#N)cc2)CC1,inactive: -5.19%,
Cc1cc(C)n(-c2cc(C(C)(C)C)nc3c(-c4ccccc4)cnn23)n1,inactive: 13.2%,
Cc1ccc(OCc2ccc(C(=O)NN)o2)c([N+](=O)[O-])c1,inactive: 4.87%,
COc1ccc(/C=C2\CCc3c2nc2ccccc2c3C(=O)O)cc1OC,inactive: 14.8%,
Cc1ccc(-n2ncc(-c3nn[nH]n3)c2N)cc1,inactive: 4.84%,
O=C(CNC(=O)C(c1ccccc1)c1ccccc1)N/N=C\c1cccc(O)c1,inactive: -3.07%,
CCCCCCCC1(C)NC(=O)NC1=O (configuration not stated),inactive: -1.08%,
CCOC(=O)C1=C(O)C(=O)N(C2CCCCC2)C1,inactive: -3.06%,
COc1ccc(/C=C/C(=O)NCCc2nc3ccccc3[nH]2)cc1,inactive: 2.14%,
O=C(CCC(=O)N1CCN(c2ccc(O)cc2)CC1)c1ccc(Br)cc1,inactive: 5.95%,
Cn1c(=O)c2c(Nc3ccc(F)cc3)cc(=O)n(-c3ccccc3)c2n(C)c1=O,inactive: -9.9%,

# Single records (already shown).
# Cc1oc(S(=O)(=O)N2CCOCC2)cc1C(=O)Nc1ccc(Cl)cc1 in the list: activity change, negative = inhibition: inactive: -6.9%
# O=S(=O)(Nc1ccc(C(F)(F)F)cn1)c1ccccc1 in the list: activity change, negative = inhibition: inactive: 13.6%
# N/C(CC1CC1(Cl)Cl)=N\OC(=O)c1ccccc1 (configuration not stated) in the list: activity change, negative = inhibition: inactive: 1.08%
# Oc1ccc(Br)cc1/C=N/N1CCN(Cc2cccc3ccccc23)CC1 in the list: activity change, negative = inhibition: inactive: 2.24%

# Following part:

SMILES,"activity change, negative = inhibition",Potency
Cc1nnsc1C(=O)N/N=C/c1ccccc1Cl,inactive: 13.4%,
CCOc1ccc(Nc2nc(N)nc(CSC(=S)N3CCOCC3)n2)cc1,inactive: -4.39%,
Cc1cc(N2CCOCC2)n2ncc(-c3ccc(Cl)cc3)c2n1,inactive: 11.1%,
CC1=NNC(=O)C1Cc1ccc(F)cc1 (configuration not stated),inactive: -3.95%,
O=S(=O)(Nc1cccc(CCc2ccccn2)c1)c1cc(Cl)ccc1Cl,inactive: -1.69%,
Brc1cc(Br)cc(CN2CCSCC2)c1,inactive: 5.09%,
O=C(Oc1c(-c2ccccc2)c(=O)n2c3c(cccc13)CC2)c1ccccc1,inactive: -10%,
Cc1cc2c3ccccc3ncn2n1,inactive: -1.43%,
C=CCn1c(SCc2ccccc2Cl)nnc1-c1sc2nc(C)cc(C)c2c1N,inactive: 1.22%,
c1ccc2c(c1)Nc1ccncc1S2,inactive: -11.1%,
Cc1nc([N+](=O)[O-])cn1CC(O)c1ccccc1 (configuration not stated),inactive: 20.8%,
CCCNC(=S)Nc1ccccc1,inactive: 1.82%,
c1ccc(N2CCOCCOCCOCCOCC2)cc1,inactive: -0.0612%,
O=[N+]([O-])c1ccc2c(c1)S(=O)c1ccccc1-2 (configuration not stated),inactive: 56.5%,
Cc1ccc(NC(=S)Nc2ccccn2)cc1C,inactive: 17.3%,
CCN(CC)S(=O)(=O)c1cccc(N2CC(O)=C(c3ccccc3)C2=N)c1,inactive: -2.1%,
CCOC(=O)/C(C#N)=C/Nc1cc(F)ccc1C,inactive: -4.58%,
Cc1c(O)nc2ccccn2c1=O,inactive: 8.73%,
O=C(/C=C/c1ccccc1)Nc1cccnc1Oc1ccccc1F,inactive: -0.428%,
CSC(=Nc1ccccc1)Nc1ccccc1,inactive: -2.42%,
Cc1ccc(-c2c[n+](CC(=O)Nc3ccccc3C)c3n2CCC3)cc1,inactive: -9.58%,
Clc1ccc(Nc2ccc(Cl)nn2)cc1,inactive: 6.5%,
